Measured values published in the supplement of paper PMC10849652.
The list shows a part of the results.

Amino acid sequences for entries named in this document (tags omitted). A change or cut given only in a name is not applied to a line headed by its entry.
UniProt Q8IWV7: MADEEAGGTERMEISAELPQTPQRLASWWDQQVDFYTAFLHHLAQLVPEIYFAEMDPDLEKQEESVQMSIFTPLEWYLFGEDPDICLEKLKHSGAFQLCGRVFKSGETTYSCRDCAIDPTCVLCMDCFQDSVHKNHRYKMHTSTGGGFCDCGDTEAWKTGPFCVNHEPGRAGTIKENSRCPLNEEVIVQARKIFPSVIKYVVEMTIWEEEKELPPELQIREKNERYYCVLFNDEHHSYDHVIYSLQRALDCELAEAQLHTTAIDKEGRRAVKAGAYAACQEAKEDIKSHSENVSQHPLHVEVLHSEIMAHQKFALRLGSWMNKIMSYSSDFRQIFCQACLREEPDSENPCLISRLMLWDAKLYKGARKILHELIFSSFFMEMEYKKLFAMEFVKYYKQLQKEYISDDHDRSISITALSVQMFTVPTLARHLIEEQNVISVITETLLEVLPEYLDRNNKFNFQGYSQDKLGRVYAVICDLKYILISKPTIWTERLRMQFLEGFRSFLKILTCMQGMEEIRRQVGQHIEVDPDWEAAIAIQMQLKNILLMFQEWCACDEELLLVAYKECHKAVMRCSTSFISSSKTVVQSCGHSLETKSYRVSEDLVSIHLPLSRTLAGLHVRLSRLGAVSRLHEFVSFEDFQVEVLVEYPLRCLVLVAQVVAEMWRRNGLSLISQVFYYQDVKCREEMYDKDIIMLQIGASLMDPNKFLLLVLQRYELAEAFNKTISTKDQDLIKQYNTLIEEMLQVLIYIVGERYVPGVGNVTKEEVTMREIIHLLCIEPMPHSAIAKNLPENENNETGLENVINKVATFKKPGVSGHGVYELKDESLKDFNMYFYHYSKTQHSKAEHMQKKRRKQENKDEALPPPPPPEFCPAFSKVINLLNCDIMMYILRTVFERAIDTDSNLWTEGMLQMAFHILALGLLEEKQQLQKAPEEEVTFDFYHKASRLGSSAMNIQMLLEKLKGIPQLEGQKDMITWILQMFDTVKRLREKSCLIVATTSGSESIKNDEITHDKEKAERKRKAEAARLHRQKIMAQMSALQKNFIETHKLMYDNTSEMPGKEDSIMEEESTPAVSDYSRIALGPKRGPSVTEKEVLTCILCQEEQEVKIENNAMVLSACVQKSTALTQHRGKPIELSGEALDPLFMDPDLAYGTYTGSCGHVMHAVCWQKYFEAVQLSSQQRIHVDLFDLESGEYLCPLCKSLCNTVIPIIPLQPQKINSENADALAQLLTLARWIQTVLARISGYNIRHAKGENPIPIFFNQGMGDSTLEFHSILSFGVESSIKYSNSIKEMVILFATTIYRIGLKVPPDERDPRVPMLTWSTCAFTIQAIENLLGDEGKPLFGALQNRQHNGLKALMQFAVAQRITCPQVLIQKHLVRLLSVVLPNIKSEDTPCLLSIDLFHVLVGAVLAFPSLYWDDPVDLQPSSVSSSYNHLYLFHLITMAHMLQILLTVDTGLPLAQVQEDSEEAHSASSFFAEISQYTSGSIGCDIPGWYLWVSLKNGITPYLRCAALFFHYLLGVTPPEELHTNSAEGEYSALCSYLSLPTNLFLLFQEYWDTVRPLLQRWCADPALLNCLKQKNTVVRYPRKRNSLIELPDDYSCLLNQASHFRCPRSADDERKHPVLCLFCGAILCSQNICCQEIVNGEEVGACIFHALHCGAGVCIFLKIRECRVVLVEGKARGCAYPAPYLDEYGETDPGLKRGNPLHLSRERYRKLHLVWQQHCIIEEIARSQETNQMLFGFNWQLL
UniProt A6NHL2: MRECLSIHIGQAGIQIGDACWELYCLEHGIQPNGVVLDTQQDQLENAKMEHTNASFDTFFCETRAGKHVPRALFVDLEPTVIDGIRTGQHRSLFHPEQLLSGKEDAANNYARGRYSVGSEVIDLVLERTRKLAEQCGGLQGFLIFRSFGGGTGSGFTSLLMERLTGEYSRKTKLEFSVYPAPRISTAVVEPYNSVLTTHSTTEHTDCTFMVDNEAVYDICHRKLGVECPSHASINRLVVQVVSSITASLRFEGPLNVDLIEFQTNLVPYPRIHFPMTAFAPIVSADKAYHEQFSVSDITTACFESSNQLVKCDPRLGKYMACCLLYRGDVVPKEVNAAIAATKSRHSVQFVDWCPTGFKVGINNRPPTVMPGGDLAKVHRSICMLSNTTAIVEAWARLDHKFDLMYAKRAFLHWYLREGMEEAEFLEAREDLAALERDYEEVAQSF
UniProt P04350, whole entry, looked up: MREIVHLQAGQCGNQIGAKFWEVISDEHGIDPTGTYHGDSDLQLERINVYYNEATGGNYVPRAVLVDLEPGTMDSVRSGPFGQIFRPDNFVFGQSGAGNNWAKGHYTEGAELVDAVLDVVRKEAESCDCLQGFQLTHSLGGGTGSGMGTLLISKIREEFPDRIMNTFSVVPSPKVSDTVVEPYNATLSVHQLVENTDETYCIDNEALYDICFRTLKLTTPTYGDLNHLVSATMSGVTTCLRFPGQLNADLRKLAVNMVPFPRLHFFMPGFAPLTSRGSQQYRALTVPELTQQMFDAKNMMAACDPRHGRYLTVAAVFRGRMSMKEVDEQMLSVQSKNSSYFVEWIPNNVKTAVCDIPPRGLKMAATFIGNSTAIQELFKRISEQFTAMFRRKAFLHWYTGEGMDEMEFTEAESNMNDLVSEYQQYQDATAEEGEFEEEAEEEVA
UniProt O14530: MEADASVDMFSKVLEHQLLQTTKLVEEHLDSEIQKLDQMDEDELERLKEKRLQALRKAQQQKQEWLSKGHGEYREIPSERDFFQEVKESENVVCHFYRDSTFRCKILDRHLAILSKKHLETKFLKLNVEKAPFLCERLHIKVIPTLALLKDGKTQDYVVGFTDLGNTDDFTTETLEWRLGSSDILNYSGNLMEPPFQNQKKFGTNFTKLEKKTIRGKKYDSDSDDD
UniProt Q16881, whole entry, looked up: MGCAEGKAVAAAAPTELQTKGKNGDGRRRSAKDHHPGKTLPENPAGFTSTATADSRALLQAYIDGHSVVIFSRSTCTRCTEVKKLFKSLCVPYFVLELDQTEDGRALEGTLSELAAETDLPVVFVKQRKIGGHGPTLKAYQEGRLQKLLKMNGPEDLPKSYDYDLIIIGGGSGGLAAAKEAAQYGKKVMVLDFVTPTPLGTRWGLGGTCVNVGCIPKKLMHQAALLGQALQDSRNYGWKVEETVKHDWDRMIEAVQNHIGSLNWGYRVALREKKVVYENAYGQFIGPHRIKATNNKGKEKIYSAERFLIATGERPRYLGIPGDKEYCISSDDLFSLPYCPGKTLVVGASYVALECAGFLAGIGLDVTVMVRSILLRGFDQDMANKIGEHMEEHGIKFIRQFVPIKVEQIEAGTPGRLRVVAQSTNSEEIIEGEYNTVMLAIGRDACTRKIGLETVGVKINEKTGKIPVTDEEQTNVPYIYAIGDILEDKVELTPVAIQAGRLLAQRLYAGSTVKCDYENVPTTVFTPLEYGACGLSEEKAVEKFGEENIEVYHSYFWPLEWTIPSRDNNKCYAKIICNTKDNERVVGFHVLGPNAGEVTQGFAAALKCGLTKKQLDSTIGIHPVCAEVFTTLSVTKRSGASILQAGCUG
UniProt Q6PKC3: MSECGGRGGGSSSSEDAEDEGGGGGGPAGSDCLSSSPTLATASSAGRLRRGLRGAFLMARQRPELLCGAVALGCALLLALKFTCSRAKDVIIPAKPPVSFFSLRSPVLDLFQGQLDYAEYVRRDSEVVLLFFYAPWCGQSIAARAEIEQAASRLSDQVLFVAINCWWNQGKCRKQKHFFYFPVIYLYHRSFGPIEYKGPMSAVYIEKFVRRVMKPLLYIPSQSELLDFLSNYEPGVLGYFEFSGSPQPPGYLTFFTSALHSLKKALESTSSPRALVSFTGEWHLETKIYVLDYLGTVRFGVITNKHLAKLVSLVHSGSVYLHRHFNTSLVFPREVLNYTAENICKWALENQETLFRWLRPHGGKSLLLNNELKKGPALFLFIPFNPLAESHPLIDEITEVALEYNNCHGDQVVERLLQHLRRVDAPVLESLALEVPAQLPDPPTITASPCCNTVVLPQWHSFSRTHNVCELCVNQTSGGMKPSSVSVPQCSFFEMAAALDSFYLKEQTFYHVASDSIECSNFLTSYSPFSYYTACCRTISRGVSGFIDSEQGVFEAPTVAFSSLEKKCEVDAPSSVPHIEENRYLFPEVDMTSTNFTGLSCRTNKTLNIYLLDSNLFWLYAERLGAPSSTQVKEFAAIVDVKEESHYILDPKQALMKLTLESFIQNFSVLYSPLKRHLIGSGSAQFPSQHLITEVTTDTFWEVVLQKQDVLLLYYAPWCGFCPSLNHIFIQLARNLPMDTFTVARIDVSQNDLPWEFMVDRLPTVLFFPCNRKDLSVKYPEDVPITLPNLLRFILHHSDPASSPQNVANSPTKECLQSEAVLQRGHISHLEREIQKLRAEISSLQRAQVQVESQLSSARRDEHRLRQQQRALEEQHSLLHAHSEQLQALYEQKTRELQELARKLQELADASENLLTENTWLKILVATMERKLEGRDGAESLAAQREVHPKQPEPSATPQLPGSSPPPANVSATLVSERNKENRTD
UniProt A2RUC4: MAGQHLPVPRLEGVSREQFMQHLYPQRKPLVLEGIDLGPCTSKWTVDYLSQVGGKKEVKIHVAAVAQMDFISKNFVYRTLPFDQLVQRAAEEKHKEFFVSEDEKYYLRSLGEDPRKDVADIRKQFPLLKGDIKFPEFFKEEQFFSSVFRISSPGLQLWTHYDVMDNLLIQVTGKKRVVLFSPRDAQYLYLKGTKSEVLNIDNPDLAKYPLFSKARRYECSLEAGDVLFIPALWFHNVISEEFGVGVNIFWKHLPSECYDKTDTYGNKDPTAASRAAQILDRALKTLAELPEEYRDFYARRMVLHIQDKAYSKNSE
UniProt Q8NBM4: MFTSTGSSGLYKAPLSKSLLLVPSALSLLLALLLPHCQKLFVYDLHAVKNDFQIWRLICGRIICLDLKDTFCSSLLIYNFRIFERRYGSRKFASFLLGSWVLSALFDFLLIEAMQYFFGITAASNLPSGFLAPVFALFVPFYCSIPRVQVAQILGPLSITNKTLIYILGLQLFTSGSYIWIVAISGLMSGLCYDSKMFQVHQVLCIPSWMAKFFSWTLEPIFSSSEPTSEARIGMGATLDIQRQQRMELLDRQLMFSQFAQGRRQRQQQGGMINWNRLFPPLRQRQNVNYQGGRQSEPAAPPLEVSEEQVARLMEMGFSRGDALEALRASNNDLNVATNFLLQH
UniProt Q9BVA1, whole entry, looked up: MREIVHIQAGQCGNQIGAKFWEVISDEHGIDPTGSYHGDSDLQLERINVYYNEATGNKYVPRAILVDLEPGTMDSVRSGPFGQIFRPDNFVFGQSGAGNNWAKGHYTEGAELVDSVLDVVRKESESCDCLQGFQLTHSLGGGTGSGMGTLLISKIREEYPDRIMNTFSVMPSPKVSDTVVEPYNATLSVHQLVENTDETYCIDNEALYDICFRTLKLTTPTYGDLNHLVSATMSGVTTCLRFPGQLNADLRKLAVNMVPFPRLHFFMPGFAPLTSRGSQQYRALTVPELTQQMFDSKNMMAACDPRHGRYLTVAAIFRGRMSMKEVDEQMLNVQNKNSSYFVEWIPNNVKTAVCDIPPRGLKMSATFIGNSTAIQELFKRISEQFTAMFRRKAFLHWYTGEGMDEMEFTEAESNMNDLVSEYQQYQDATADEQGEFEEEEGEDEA
UniProt Q86VQ3: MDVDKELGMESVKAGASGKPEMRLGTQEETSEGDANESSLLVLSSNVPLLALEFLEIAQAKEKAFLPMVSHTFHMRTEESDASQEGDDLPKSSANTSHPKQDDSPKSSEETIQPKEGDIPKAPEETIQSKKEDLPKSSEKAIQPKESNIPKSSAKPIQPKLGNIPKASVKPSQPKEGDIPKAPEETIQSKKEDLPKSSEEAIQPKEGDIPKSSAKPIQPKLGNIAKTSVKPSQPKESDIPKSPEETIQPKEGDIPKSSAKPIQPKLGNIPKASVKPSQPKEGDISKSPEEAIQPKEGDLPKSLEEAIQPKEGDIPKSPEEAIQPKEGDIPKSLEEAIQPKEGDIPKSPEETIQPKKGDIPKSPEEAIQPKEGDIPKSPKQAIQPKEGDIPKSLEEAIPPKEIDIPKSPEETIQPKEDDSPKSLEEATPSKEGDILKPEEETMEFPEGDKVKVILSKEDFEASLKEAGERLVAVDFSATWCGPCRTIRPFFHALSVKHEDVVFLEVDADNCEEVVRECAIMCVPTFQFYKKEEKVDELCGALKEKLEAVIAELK
UniProt Q9Y385: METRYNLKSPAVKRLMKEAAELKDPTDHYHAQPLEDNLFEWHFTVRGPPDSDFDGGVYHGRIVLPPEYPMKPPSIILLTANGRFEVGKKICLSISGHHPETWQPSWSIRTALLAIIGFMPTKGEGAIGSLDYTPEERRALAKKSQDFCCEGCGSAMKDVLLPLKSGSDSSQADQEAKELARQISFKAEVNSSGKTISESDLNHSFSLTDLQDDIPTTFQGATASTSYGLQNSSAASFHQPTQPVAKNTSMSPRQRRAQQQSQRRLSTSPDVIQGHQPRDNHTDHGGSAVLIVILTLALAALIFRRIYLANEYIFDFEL

Legend:
Assay in all cases: log2 fold change, soluble protein after heating vs DMSO (PISA); higher = thermal stabilisation; K562 lysate, 10 uM; active = over 0.2 and 3.5 SD of the protein, either way, in both replicates (recomputed)
ibrutinib = compound: C=CC(=O)N1CCC[C@@H](n2nc(-c3ccc(Oc4ccccc4)cc3)c3c(N)ncnc32)C1 [ibrutinib]
How it was run: (§1)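 To prepare the extract, K562 pellets were dounce-homogenised in PBS pH 7.4 with 1 mM MgCl2, giving crude material at 1 mg/mL protein. This was treated with 10 μM compound for 30 min, then heated in aliquots for 3 min over 48°C-58°C before pooling and addition of NP-40 to 0.5% at 4°C. Centrifugation at 21,000xg for 90 min left soluble protein in the supernatant, which TMTpro 16plex LC-MS/MS quantified with equalised channel sums. Results are log-two fold changes in thermal stability compared with solvent controls, from duplicates.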

[1] = compound: CC(=O)c1cnc2ccc(-c3cc(Cl)c(O)c(Cl)c3)nc2c1N[C@H]1CC[C@H](CN(C)C)CC1
How it was run: as §1

ralimetinib = compound: CC(C)(C)Cn1c(N)nc2ccc(-c3[nH]c(C(C)(C)C)nc3-c3ccc(F)cc3)nc21 [ralimetinib]
How it was run: as §1

[2] = compound: CC(C)(O)CC(=O)NCCn1ccc2ncnc(Nc3ccc(Oc4cccc(C(F)(F)F)c4)c(Cl)c3)c21
How it was run: as §1

[3] = compound: CC(C)C1=C2N=C(C=C(N2N=C1)NCC3=CC=CC=C3)NCCCCCCN
How it was run: as §1

[4] = compound: CC1=C(C(CC(=O)N1)C2=CC=C(C=C2)C(F)(F)F)C(=O)NC3=C(C=C4C(=C3)C=NN4)F
How it was run: as §1

[5] = compound: CC1=C(C2=C(C=C1)C(=O)C3=CC=CC=C3N2CCCN)C
How it was run: as §1

[6] = compound: CC1=C(C=C(C=C1)NC(=O)C2=CC(=CC=C2)C(C)(C)C#N)NC3=CC4=C(C=C3)N=CN(C4=O)C
How it was run: as §1

[7] = compound: CC1=C(C=C(C=C1)NC(=O)C2=CC(=CC=C2)N(C)C)NC(=O)C3=CC=C(C=C3)O
How it was run: as §1

[8] = compound: CC1=CC=C(C=C1)SC2=C3C=C(SC3=CN=C2)C(=O)N
How it was run: as §1

vemurafenib = compound: CCCS(=O)(=O)Nc1ccc(F)c(C(=O)c2c[nH]c3ncc(-c4ccc(Cl)cc4)cc23)c1F [vemurafenib]
How it was run: as §1

[9] = compound: CCCS(=O)(=O)Nc1ccc(F)c(C(=O)c2c[nH]c3ncc(Cl)cc23)c1F
How it was run: as §1

barasertib = compound: CCN(CCCOc1ccc2c(Nc3cc(CC(=O)Nc4cccc(F)c4)[nH]n3)ncnc2c1)CCOP(=O)(O)O [barasertib]
How it was run: as §1

[10] = compound: CC[C@@H]1C(=O)N(C)c2cnc(Nc3ccc(C(=O)NC4CCN(C)CC4)cc3OC)nc2N1C1CCCC1
How it was run: as §1

volasertib = compound: CC[C@@H]1C(=O)N(C)c2cnc(Nc3ccc(C(=O)N[C@H]4CC[C@H](N5CCN(CC6CC6)CC5)CC4)cc3OC)nc2N1C(C)C [volasertib]
How it was run: as §1

[11] = compound: CCn1c(C(=O)N(C2CC2)C2CC2)cc2c3c(ncn3C)c(Nc3cc(C)n(C)n3)nc21
How it was run: as §1

[12] = compound: CCn1cc(-c2ccnc3[nH]c(-c4cccc(CN(C)C)c4)cc23)c(-c2ccc(NC(=O)N(C)C)cc2)n1
How it was run: as §1

[13] = compound: CN1CCC(CNc2ccc3ncc(-c4cccc(OC(F)(F)F)c4)n3n2)CC1
How it was run: as §1

saracatinib = compound: CN1CCN(CCOc2cc(OC3CCOCC3)c3c(Nc4c(Cl)ccc5c4OCO5)ncnc3c2)CC1 [saracatinib]
How it was run: as §1

sotrastaurin = compound: CN1CCN(c2nc(C3=C(c4c[nH]c5ccccc45)C(=O)NC3=O)c3ccccc3n2)CC1 [sotrastaurin]
How it was run: as §1

Measured: log2 fold change

UBR3 isoform 4 (UniProt Q6ZT12)
inactive: ibrutinib -0.002 | [1] -0.023 | ralimetinib 0.107 | [2] -0.009 | [3] 0.005 | [4] 0.006 | [5] -0.055 | [6] -0.016 | [7] 0.013 | [8] 0.021 | vemurafenib 0.035 | [9] -0.001 | barasertib 0.026 | [10] -0.033 | volasertib -0.091 | [11] -0.011 | [12] -0.015 | [13] -0.044 | saracatinib 0.044 | sotrastaurin 0.009

UCHL5 (UniProt Q5LJA9)
inactive: ibrutinib 0.009 | [1] 0.078 | ralimetinib -0.007 | [2] -0.113 | [3] 0.044 | [5] 0 | [6] 0.012 | [7] 0.035 | [8] 0.01 | vemurafenib -0.021 | [9] -0.061 | barasertib -0.01 | [10] -0.103 | volasertib 0.03 | [11] -0.108 | [12] 0.019 | [13] 0 | saracatinib 0.023 | sotrastaurin 0.007

UBR1 (UniProt Q8IWV7)
inactive: ibrutinib 0.007 | [1] 0.005 | ralimetinib 0.015 | [2] -0.044 | [3] -0.014 | [4] -0.011 | [5] 0.004 | [6] -0.004 | [7] -0.03 | [8] -0.008 | vemurafenib -0.018 | [9] 0.025 | barasertib 0.054 | [10] -0.032 | volasertib -0.07 | [11] 0.03 | [12] -0.046 | [13] -0.038 | saracatinib 0.019 | sotrastaurin 0.004

UBE2I (UniProt H3BQQ9)
inactive: ibrutinib 0.056 | [1] -0.034 | ralimetinib 0 | [2] -0.23 | [5] -0.018 | [6] -0.237 | [7] 0.019 | [8] 0 | vemurafenib 0.128 | [9] 0.241 | barasertib 0.145 | volasertib -0.049 | [11] -0.096 | [12] -0.244 | [13] 0.224 | saracatinib -0.075 | sotrastaurin -0.026

TUBAL3 (UniProt A6NHL2)
inactive: ibrutinib 0.002 | [1] -0.071 | ralimetinib 0.056 | [2] -0.145 | [3] 0.116 | [4] -0.009 | [5] -0.008 | [7] -0.119 | [8] 0.025 | vemurafenib 0.084 | [9] -0.024 | barasertib -0.011 | [10] -0.122 | volasertib 0.041 | [11] -0.196 | [12] -0.413 | [13] 0.284 | saracatinib 0.001

TUBB6 (UniProt K7ES63)
inactive: ibrutinib -0.005 | [1] 0.076 | ralimetinib 0.094 | [2] -0.07 | [3] 0.132 | [4] -0.061 | [6] -0.005 | [7] 0.027 | [8] -0.098 | vemurafenib 0.072 | [9] -0.027 | barasertib -0.012 | [10] -0.096 | volasertib -0.064 | [11] 0.018 | [12] -0.06 | [13] 0.23 | sotrastaurin 0.036

3 successive records from above:
UBE2I (UniProt H3BQQ9)
inactive: ibrutinib 0.056 | [1] -0.034 | ralimetinib 0 | [2] -0.23 | [5] -0.018 | [6] -0.237 | [7] 0.019 | [8] 0 | vemurafenib 0.128 | [9] 0.241 | barasertib 0.145 | volasertib -0.049 | [11] -0.096 | [12] -0.244 | [13] 0.224 | saracatinib -0.075 | sotrastaurin -0.026

TUBAL3 (UniProt A6NHL2)
inactive: ibrutinib 0.002 | [1] -0.071 | ralimetinib 0.056 | [2] -0.145 | [3] 0.116 | [4] -0.009 | [5] -0.008 | [7] -0.119 | [8] 0.025 | vemurafenib 0.084 | [9] -0.024 | barasertib -0.011 | [10] -0.122 | volasertib 0.041 | [11] -0.196 | [12] -0.413 | [13] 0.284 | saracatinib 0.001

TUBB6 (UniProt K7ES63)
inactive: ibrutinib -0.005 | [1] 0.076 | ralimetinib 0.094 | [2] -0.07 | [3] 0.132 | [4] -0.061 | [6] -0.005 | [7] 0.027 | [8] -0.098 | vemurafenib 0.072 | [9] -0.027 | barasertib -0.012 | [10] -0.096 | volasertib -0.064 | [11] 0.018 | [12] -0.06 | [13] 0.23 | sotrastaurin 0.036

(next part)

TUBB4A (UniProt P04350)
inactive: ibrutinib 0.007 | [1] -0.018 | ralimetinib 0.074 | [2] 0.039 | [3] 0.088 | [4] 0.009 | [5] -0.086 | [6] -0.085 | [7] -0.015 | [8] -0.068 | [9] 0.036 | barasertib -0.006 | [10] 0.045 | volasertib 0.104 | [11] 0.02 | [12] -0.09 | [13] 0 | saracatinib -0.033 | sotrastaurin -0.007

TXNDC9 (UniProt O14530)
inactive: ibrutinib -0.03 | [1] 0.008 | ralimetinib -0.006 | [2] -0.017 | [3] -0.018 | [4] -0.011 | [5] -0.036 | [6] -0.024 | [7] 0.029 | [8] 0.012 | vemurafenib 0.001 | [9] -0.008 | barasertib 0.007 | [10] 0.014 | volasertib 0.021 | [11] -0.018 | [12] -0.16 | [13] 0.072 | saracatinib 0.049 | sotrastaurin -0.017

UBA52 (UniProt P62987)
inactive: ibrutinib -0.007 | [1] -0.025 | [3] 0.119 | [4] 0.006 | [6] 0.034 | [8] 0 | [9] -0.021 | barasertib 0 | [10] 0.055 | volasertib 0.016 | [12] 0.02 | [13] -0.032 | sotrastaurin -0.043

TXNRD1 isoform 7 (UniProt Q16881)
inactive: ibrutinib 0.061 | [1] 0.09 | ralimetinib -0.129 | [2] -0.3 | [5] -0.083 | [7] 0.067 | [8] -0.197 | vemurafenib 0.261 | [9] -0.026 | barasertib -0.107 | [10] 0.351 | volasertib 0.282 | [11] -0.127 | [12] -0.424 | [13] 0.313 | saracatinib 0.04

TXNDC11 (UniProt Q6PKC3)
inactive: ibrutinib -0.015 | [1] 0.036 | ralimetinib 0.059 | [2] 0.015 | [3] -0.097 | [4] -0.042 | [5] -0.013 | [6] 0.017 | [7] 0.042 | [8] -0.01 | [9] 0.023 | barasertib 0.042 | [10] -0.044 | volasertib -0.061 | [11] -0.059 | [12] -0.102 | [13] -0.02 | saracatinib 0.054 | sotrastaurin -0.011

TYW5 (UniProt A2RUC4)
inactive: ibrutinib 0.034 | [1] 0.002 | [3] -0.044 | [4] -0.012 | [6] -0.028 | [8] 0.028 | [9] -0.053 | barasertib -0.157 | [10] -0.056 | volasertib -0.092 | [12] 0.042 | [13] -0.017 | sotrastaurin -0.005

UBAC2 (UniProt Q8NBM4)
inactive: ibrutinib 0.148 | [1] -0.116 | ralimetinib 0.039 | [2] -0.016 | [3] 0.071 | [5] -0.051 | [6] -0.019 | [7] -0.022 | [8] 0.038 | vemurafenib -0.018 | [9] -0.122 | barasertib 0.03 | [10] 0.242 | volasertib -0.157 | [11] -0.01 | [12] 0.027 | [13] -0.063 | saracatinib 0.094 | sotrastaurin 0.032

TUBB2B (UniProt Q9BVA1)
inactive: ibrutinib 0.087 | [1] -0.059 | [4] -0.055 | [5] -0.149 | [8] 0.027 | [9] -0.1 | barasertib -0.089 | [10] 0.1 | volasertib -0.018 | [12] 0.019 | [13] -0.014 | saracatinib 0.051

TXNDC2 (UniProt Q86VQ3)
inactive: ibrutinib 0.02 | [1] -0.059 | ralimetinib -0.131 | [2] 0.027 | [3] 0.06 | [4] -0.195 | [6] 0.034 | [7] 0.129 | [8] -0.007 | [9] 0.035 | barasertib -0.014 | volasertib -0.067 | [11] 0.032 | [12] -0.035 | [13] 0.085 | sotrastaurin 0.027

TUBB2A (UniProt Q13885)
inactive: ibrutinib 0.005 | [1] 0.014 | ralimetinib 0.032 | [2] -0.005 | [3] 0.027 | [4] 0.02 | [5] 0.001 | [6] -0.011 | [7] 0.032 | [8] 0.001 | vemurafenib -0.001 | [9] 0.016 | barasertib -0.013 | [10] -0.007 | volasertib -0.049 | [11] 0.003 | [12] -0.032 | [13] 0.002 | saracatinib 0.011 | sotrastaurin 0.017

UBE2J1 (UniProt Q9Y385)
inactive: ibrutinib 0.025 | [1] 0.012 | ralimetinib -0.058 | [2] -0.094 | [3] -0.01 | [4] -0.016 | [5] 0.013 | [6] 0.031 | [7] 0.058 | [8] 0.01 | vemurafenib 0.159 | [9] -0.008 | barasertib 0.059 | [10] 0.147 | volasertib -0.021 | [11] -0.04 | [12] 0.075 | [13] -0.012 | saracatinib 0.084 | sotrastaurin -0.026
